Laboratory results taken from patent US8580785B2, “Insecticides” (Syngenta Crop Protection LLC, priority 2005, dated 2013).
Some results were stated once for a whole list of compounds, not compound by compound. For part of these data: For at least one compound, name, drawing or mass did not settle the structure.

Key:
Type in all cases: in vivo
Diabrotica balteata = assay: Activity against Diabrotica balteata (sprayed maize seedlings); conditions: 400 ppm spray on maize seedlings; 2nd instar larvae; 6 days
Procedure: Maize seedlings are sprayed with an aqueous emulsion spray mixture comprising 400 ppm of active ingredient and, after the spray coating has dried on, populated with 10 larvae (2nd instar) of Diabrotica balteata and introduced into a plastic container. 6 days later, the percentage reduction in the population (% activity) is determined by comparing the number of dead larvae between the treated and untreated plants.

Heliothis virescens eggs = assay: Activity against Heliothis virescens (application to eggs); conditions: 400 ppm spray on eggs deposited on cotton; 8 days
Myzus persicae [1] = assay: Systemic insecticide test for Myzus persicae; conditions: roots of infected pea seedlings in 400 ppm spray mixture; 20°; 3 and 6 days
Procedure: Pea seedlings are infected with Myzus persicae, and their roots are subsequently placed into a spray mixture comprising 400 ppm of active ingredient. The seedlings are then incubated at 20°. 3 and 6 days later, the percentage reduction in the population (% activity) is determined by comparing the number of dead aphids between the treated and untreated plants.

Plutella xylostella = assay: Activity against Plutella xylostella; conditions: 400 ppm spray on young cabbage plants; 3rd instar caterpillars; 3 days
Procedure: (§1) Young cabbage plants are sprayed with an aqueous emulsion spray mixture comprising 400 ppm of active ingredient and, after the spray coating has dried on, populated with 10 caterpillars (3rd instar) of Plutella xylostella and introduced into a plastic container. 3 days later, the percentage reduction in the population and in the feeding damage (% activity) are determined by comparing the number of dead caterpillars and the feeding damage between the treated and untreated plants.

Spodoptera littoralis [2] = assay: Activity against Spodoptera littoralis; conditions: 400 ppm spray on young soya plants; 1st instar caterpillars; 3 days
Procedure: as §1, with “soya” for “cabbage”, “(1st” for “(3rd”, “Spodoptera littoralis” for “Plutella xylostella”

Spodoptera littoralis [3] = assay: Systemic insecticide test for Spodoptera littoralis (cotton leafworm); conditions: 12.5 ppm in water of maize seedlings, six days uptake; 1st instar larvae on cut leaves, four days; one replicate
Myzus persicae [4] = assay: Activity against Myzus persicae (foliar application); conditions: 400 ppm spray on infected pea seedlings; 3 and 6 days
Heliothis virescens = assay: Activity against Heliothis virescens (foliar application); conditions: 400 ppm spray on young soya plants; 1st instar caterpillars; 6 days
Procedure: as §1, with “soya” for “cabbage”, “(1st” for “(3rd”, “Heliothis virescens” for “Plutella xylostella”, “6” for “3”

Cydia pomonella = assay: Activity against Cydia pomonella (sprayed diet cubes); conditions: 400 ppm active ingredient sprayed on diet cubes; 1st instar; 14 days at 26° C.

CNC(=O)c1cc2nccnc2c(Cl)c1NC(=O)c1cc(C(F)(F)F)nn1-c1ncccc1Cl [Compound T1.1.2]
over 80%: percentage reduction in the population (% activity) (Diabrotica balteata) | percentage hatching rate of the eggs and survival rate of the caterpillars (% activity) (Heliothis virescens eggs) | percentage reduction in the population (% activity) (Myzus persicae [1]) | percentage reduction in the population and in the feeding damage (% activity) (Plutella xylostella) | percentage reduction in the population and in the feeding damage (% activity) (Spodoptera littoralis [2]) | percentage of dead (activity) (Spodoptera littoralis [3])

CNC(=O)c1cc2ncccc2c(Cl)c1NC(=O)c1cc(Br)nn1-c1ncccc1Cl [Compound T3.1.38]
over 80%: percentage reduction in the population (% activity) (Diabrotica balteata) | percentage hatching rate of the eggs and survival rate of the caterpillars (% activity) (Heliothis virescens eggs) | percentage reduction in the population (% activity) (Myzus persicae [4]) | percentage reduction in the population and in the feeding damage (% activity) (Plutella xylostella) | percentage reduction in the population and in the feeding damage (% activity) (Spodoptera littoralis [2]) | percentage of dead (activity) (Spodoptera littoralis [3])

CNC(=O)c1cc2cccnc2c(Cl)c1NC(=O)c1cc(OCC(F)(F)F)nn1-c1ncccc1Cl [Compound T5.1.56]
over 80%: percentage reduction in the population (% activity) (Diabrotica balteata) | percentage hatching rate of the eggs and survival rate of the caterpillars (% activity) (Heliothis virescens eggs) | percentage reduction in the population and in the feeding damage (% activity) (Plutella xylostella) | percentage reduction in the population and in the feeding damage (% activity) (Spodoptera littoralis [2]) | percentage of dead (activity) (Spodoptera littoralis [3])

CNC(=O)c1cc2nc(C)ccc2c(C)c1NC(=O)c1cc(C(F)(F)F)nn1-c1ncccc1Cl [Compound T7.1.1]
over 80%: percentage reduction in the population and in the feeding damage (% activity) (Heliothis virescens) | percentage hatching rate of the eggs and survival rate of the caterpillars (% activity) (Heliothis virescens eggs) | percentage reduction in the population (% activity) (Myzus persicae [1]) | percentage reduction in the population and in the feeding damage (% activity) (Plutella xylostella) | percentage reduction in the population and in the feeding damage (% activity) (Spodoptera littoralis [2]) | percentage of dead (activity) (Spodoptera littoralis [3])

CCNC(=O)c1cc2nc(C)ccc2c(C)c1NC(=O)c1cc(C(F)(F)F)nn1-c1ncccc1Cl [Compound T7.1.4]
over 80%: percentage reduction in the population and in the feeding damage (% activity) (Heliothis virescens) | percentage hatching rate of the eggs and survival rate of the caterpillars (% activity) (Heliothis virescens eggs) | percentage reduction in the population and in the feeding damage (% activity) (Plutella xylostella) | percentage reduction in the population and in the feeding damage (% activity) (Spodoptera littoralis [2]) | percentage of dead (activity) (Spodoptera littoralis [3])

Cc1ccc2c(C)c(NC(=O)c3cc(C(F)(F)F)nn3-c3ncccc3Cl)c(C(=O)NC(C)C)cc2n1 [Compound T7.1.7]
over 80%: activity (survival rate of the caterpillars and growth regulation) (Cydia pomonella) | percentage hatching rate of the eggs and survival rate of the caterpillars (% activity) (Heliothis virescens eggs)

CNC(=O)c1cc2nc(C(F)(F)F)ccc2c(C)c1NC(=O)c1cc(Br)nn1-c1ncccc1Cl [Compound T8.1.37]
over 80%: percentage reduction in the population (% activity) (Diabrotica balteata) | percentage hatching rate of the eggs and survival rate of the caterpillars (% activity) (Heliothis virescens eggs) | percentage reduction in the population (% activity) (Myzus persicae [4]) | percentage reduction in the population and in the feeding damage (% activity) (Plutella xylostella) | percentage reduction in the population and in the feeding damage (% activity) (Spodoptera littoralis [2])

Cc1c(NC(=O)c2cc(Br)nn2-c2ncccc2Cl)c(C(=O)NC(C)(C)CS(C)(=O)=O)cc2nc(C(F)(F)F)ccc12 [Compound T8.1.84]
over 80%: percentage reduction in the population (% activity) (Diabrotica balteata) | percentage hatching rate of the eggs and survival rate of the caterpillars (% activity) (Heliothis virescens eggs) | percentage reduction in the population (% activity) (Myzus persicae [4]) | percentage reduction in the population and in the feeding damage (% activity) (Plutella xylostella) | percentage reduction in the population and in the feeding damage (% activity) (Spodoptera littoralis [2])

CC(C)NC(=O)c1cc2ncsc2c(Cl)c1NC(=O)c1cc(C(F)(F)F)nn1-c1ncccc1Cl [Compound T23.1.8]
over 80%: percentage hatching rate of the eggs and survival rate of the caterpillars (% activity) (Heliothis virescens eggs) | percentage reduction in the population (% activity) (Myzus persicae [4]) | percentage reduction in the population and in the feeding damage (% activity) (Spodoptera littoralis [2]) | percentage of dead (activity) (Spodoptera littoralis [3])

COc1nc2cc(C(=O)NC(C)C)c(NC(=O)c3cc(C(F)(F)F)nn3-c3ncccc3Cl)c(Cl)c2[nH]1 [Compound T118.1.8]
over 80%: percentage hatching rate of the eggs and survival rate of the caterpillars (% activity) (Heliothis virescens eggs) | percentage reduction in the population and in the feeding damage (% activity) (Plutella xylostella) | percentage reduction in the population and in the feeding damage (% activity) (Spodoptera littoralis [2]) | percentage of dead (activity) (Spodoptera littoralis [3])
